Assay results as given in US20110135657A1.
Results are given in words; binding and its absence hold for the method and conditions named. Some results given as binding are weak or reduced against the parent protein; the word gives no strength.

By UniProt entry, the sequences of proteins in these tests, tags left out. Where a name states a change or a piece, a line headed by the entry shows the natural chain unless it says otherwise.
UniProt Q86Z14: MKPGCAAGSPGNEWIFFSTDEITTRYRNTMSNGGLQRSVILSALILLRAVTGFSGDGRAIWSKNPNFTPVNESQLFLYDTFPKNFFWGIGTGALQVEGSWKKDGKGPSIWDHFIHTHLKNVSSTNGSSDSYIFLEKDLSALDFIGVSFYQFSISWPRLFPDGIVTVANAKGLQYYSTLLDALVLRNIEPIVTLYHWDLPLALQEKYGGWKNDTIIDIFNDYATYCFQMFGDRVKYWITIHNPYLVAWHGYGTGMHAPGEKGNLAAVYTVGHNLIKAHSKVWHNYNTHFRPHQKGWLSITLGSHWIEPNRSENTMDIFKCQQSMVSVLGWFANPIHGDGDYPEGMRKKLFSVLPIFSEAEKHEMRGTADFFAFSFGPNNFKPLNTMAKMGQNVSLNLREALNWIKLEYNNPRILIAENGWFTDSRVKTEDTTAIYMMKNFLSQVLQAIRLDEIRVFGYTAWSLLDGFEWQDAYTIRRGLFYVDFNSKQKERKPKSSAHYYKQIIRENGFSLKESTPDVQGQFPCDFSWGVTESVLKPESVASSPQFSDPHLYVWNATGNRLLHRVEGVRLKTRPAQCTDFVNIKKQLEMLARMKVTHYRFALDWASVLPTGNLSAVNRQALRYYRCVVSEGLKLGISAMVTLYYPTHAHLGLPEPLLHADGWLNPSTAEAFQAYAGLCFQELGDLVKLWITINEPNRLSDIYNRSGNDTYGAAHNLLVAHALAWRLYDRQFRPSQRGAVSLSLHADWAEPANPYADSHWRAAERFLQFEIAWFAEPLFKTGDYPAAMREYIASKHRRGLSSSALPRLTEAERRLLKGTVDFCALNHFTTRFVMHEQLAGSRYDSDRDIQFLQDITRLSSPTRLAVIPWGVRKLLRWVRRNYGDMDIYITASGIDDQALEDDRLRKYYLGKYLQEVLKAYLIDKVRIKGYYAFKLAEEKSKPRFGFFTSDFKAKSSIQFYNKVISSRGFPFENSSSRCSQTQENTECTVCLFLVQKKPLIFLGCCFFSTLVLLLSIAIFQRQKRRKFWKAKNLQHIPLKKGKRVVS

Molecular target: soluble human β-Klotho (Biacore, Example 8) (human) (UniProt Q86Z14)
Test: Biacore competition binning; test antibody injected over soluble receptor captured on immobilized 24H11, 17D8 or 1A2.1

B1: 18B11.1 (antibody, human IgG2, kappa, V domains shown)
VH: EVQLVESGGGLVKPGGSLRLSCAASGFTFSDAWMSWVRQAPGKGLEWVGRIKSKTDGGTTDYAAPVKGRFTISRDDSKNTLYLQMNSLKTEDTAVYFCTSTYSSGWYVWDYYGMDVWGQGTTVTVSS
VL: DIVMTQSPLSLPVTPGEPASISCRSSQSLLYYNGFTYLDWFLQKPGQSPHLLIYLGSNRASGVPDRFSGSVSGTDFTLKISRVEAEDVGVYYCMQSLQTPFTFGPGTKVDIKR
  binding: binds
